The list shows a part of the results.
Tests used:
Test in all cases: log2 fold change, soluble protein after heating vs DMSO (PISA); higher = thermal stabilisation; K562 cells, 10 uM, 30 min; active = over 0.2 and 3.5 SD of the protein, either way, in both replicates (recomputed)
[1] = compound: Cc1ccc(NC(=O)c2ccc(CN3CC[C@H](N(C)C)C3)c(C(F)(F)F)c2)cc1Nc1nccc(-c2cncnc2)n1 [bafetinib]
How it was run: (§1)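 Quantification of soluble protein used TMTpro 16plex LC-MS/MS, with channel sums equalised. Samples were the supernatant after 21,000xg for 90 min of pooled aliquots from K562 cells (2×10^6 cells/mL) treated with 10 μM compound for 30 min, heated for 3 min over 48°C-58°C, and extracted in PBS with 0.5% NP-40 at 4°C. Values, from duplicates, describe thermal stability against control samples on a log2 fold-change scale.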

Sequences of proteins named here, by UniProt entry; tags and fusion partners are left off. A change or cut given only in a name is not applied to a line headed by its entry.
UniProt Q14318: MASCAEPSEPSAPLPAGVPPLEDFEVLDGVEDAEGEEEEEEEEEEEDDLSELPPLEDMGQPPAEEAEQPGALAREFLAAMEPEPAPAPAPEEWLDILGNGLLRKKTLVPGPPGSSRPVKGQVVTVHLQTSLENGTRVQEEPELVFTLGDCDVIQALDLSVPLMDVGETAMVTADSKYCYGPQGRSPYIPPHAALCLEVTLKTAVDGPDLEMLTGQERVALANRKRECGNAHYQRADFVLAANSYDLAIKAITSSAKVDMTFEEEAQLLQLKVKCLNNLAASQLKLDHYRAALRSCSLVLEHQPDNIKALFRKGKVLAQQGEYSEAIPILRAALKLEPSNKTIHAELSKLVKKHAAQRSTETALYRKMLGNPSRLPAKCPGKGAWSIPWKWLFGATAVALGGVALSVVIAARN
UniProt P62942, whole entry, looked up: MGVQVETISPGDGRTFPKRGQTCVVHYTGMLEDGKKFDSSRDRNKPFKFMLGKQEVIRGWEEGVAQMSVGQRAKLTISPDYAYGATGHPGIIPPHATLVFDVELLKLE
UniProt Q96HJ9: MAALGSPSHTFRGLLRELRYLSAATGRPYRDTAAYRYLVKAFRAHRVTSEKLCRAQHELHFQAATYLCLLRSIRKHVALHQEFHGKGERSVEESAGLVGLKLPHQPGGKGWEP
UniProt P10109: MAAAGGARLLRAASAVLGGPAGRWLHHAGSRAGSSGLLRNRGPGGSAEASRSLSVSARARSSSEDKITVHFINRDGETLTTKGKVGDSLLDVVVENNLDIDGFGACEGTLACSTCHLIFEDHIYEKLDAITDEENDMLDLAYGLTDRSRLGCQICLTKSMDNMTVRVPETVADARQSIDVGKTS
UniProt Q8NFZ0: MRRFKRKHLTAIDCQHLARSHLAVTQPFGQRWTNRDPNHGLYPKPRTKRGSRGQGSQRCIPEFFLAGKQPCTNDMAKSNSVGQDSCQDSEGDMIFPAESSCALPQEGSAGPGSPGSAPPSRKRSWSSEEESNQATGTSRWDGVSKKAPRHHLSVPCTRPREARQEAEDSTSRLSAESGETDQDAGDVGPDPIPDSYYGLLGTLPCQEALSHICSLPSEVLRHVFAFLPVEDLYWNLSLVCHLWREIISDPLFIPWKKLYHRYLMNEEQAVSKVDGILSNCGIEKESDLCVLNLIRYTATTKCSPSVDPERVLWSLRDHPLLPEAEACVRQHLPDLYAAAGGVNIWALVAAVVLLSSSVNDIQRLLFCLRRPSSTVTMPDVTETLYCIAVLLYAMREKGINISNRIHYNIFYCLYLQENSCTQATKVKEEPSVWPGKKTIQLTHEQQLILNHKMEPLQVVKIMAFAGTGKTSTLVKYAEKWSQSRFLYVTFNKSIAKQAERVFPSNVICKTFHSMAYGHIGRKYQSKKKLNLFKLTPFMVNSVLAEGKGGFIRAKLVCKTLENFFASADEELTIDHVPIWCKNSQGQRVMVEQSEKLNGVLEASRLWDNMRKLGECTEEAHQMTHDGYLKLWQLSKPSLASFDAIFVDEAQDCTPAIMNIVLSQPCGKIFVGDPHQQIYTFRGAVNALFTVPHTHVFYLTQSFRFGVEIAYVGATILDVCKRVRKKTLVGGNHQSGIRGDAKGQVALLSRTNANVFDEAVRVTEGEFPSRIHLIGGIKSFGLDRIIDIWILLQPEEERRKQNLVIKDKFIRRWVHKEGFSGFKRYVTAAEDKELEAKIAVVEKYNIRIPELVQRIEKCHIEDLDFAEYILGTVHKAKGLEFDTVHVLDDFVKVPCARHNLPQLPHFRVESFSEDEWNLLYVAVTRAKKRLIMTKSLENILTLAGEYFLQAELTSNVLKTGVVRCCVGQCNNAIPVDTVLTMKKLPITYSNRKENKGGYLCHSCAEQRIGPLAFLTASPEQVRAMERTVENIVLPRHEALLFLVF
UniProt Q8N8J7: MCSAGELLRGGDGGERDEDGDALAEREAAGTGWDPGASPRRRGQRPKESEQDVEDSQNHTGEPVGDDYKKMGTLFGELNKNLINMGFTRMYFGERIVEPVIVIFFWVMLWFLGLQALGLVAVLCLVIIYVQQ
UniProt Q9H4M3: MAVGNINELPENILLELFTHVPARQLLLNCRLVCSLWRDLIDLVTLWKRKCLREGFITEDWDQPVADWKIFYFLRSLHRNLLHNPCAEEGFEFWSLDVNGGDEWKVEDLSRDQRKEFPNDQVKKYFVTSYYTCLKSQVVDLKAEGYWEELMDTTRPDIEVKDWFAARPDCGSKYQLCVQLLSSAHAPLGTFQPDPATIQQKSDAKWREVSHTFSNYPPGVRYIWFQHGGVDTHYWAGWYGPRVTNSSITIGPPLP
UniProt Q9NYQ8: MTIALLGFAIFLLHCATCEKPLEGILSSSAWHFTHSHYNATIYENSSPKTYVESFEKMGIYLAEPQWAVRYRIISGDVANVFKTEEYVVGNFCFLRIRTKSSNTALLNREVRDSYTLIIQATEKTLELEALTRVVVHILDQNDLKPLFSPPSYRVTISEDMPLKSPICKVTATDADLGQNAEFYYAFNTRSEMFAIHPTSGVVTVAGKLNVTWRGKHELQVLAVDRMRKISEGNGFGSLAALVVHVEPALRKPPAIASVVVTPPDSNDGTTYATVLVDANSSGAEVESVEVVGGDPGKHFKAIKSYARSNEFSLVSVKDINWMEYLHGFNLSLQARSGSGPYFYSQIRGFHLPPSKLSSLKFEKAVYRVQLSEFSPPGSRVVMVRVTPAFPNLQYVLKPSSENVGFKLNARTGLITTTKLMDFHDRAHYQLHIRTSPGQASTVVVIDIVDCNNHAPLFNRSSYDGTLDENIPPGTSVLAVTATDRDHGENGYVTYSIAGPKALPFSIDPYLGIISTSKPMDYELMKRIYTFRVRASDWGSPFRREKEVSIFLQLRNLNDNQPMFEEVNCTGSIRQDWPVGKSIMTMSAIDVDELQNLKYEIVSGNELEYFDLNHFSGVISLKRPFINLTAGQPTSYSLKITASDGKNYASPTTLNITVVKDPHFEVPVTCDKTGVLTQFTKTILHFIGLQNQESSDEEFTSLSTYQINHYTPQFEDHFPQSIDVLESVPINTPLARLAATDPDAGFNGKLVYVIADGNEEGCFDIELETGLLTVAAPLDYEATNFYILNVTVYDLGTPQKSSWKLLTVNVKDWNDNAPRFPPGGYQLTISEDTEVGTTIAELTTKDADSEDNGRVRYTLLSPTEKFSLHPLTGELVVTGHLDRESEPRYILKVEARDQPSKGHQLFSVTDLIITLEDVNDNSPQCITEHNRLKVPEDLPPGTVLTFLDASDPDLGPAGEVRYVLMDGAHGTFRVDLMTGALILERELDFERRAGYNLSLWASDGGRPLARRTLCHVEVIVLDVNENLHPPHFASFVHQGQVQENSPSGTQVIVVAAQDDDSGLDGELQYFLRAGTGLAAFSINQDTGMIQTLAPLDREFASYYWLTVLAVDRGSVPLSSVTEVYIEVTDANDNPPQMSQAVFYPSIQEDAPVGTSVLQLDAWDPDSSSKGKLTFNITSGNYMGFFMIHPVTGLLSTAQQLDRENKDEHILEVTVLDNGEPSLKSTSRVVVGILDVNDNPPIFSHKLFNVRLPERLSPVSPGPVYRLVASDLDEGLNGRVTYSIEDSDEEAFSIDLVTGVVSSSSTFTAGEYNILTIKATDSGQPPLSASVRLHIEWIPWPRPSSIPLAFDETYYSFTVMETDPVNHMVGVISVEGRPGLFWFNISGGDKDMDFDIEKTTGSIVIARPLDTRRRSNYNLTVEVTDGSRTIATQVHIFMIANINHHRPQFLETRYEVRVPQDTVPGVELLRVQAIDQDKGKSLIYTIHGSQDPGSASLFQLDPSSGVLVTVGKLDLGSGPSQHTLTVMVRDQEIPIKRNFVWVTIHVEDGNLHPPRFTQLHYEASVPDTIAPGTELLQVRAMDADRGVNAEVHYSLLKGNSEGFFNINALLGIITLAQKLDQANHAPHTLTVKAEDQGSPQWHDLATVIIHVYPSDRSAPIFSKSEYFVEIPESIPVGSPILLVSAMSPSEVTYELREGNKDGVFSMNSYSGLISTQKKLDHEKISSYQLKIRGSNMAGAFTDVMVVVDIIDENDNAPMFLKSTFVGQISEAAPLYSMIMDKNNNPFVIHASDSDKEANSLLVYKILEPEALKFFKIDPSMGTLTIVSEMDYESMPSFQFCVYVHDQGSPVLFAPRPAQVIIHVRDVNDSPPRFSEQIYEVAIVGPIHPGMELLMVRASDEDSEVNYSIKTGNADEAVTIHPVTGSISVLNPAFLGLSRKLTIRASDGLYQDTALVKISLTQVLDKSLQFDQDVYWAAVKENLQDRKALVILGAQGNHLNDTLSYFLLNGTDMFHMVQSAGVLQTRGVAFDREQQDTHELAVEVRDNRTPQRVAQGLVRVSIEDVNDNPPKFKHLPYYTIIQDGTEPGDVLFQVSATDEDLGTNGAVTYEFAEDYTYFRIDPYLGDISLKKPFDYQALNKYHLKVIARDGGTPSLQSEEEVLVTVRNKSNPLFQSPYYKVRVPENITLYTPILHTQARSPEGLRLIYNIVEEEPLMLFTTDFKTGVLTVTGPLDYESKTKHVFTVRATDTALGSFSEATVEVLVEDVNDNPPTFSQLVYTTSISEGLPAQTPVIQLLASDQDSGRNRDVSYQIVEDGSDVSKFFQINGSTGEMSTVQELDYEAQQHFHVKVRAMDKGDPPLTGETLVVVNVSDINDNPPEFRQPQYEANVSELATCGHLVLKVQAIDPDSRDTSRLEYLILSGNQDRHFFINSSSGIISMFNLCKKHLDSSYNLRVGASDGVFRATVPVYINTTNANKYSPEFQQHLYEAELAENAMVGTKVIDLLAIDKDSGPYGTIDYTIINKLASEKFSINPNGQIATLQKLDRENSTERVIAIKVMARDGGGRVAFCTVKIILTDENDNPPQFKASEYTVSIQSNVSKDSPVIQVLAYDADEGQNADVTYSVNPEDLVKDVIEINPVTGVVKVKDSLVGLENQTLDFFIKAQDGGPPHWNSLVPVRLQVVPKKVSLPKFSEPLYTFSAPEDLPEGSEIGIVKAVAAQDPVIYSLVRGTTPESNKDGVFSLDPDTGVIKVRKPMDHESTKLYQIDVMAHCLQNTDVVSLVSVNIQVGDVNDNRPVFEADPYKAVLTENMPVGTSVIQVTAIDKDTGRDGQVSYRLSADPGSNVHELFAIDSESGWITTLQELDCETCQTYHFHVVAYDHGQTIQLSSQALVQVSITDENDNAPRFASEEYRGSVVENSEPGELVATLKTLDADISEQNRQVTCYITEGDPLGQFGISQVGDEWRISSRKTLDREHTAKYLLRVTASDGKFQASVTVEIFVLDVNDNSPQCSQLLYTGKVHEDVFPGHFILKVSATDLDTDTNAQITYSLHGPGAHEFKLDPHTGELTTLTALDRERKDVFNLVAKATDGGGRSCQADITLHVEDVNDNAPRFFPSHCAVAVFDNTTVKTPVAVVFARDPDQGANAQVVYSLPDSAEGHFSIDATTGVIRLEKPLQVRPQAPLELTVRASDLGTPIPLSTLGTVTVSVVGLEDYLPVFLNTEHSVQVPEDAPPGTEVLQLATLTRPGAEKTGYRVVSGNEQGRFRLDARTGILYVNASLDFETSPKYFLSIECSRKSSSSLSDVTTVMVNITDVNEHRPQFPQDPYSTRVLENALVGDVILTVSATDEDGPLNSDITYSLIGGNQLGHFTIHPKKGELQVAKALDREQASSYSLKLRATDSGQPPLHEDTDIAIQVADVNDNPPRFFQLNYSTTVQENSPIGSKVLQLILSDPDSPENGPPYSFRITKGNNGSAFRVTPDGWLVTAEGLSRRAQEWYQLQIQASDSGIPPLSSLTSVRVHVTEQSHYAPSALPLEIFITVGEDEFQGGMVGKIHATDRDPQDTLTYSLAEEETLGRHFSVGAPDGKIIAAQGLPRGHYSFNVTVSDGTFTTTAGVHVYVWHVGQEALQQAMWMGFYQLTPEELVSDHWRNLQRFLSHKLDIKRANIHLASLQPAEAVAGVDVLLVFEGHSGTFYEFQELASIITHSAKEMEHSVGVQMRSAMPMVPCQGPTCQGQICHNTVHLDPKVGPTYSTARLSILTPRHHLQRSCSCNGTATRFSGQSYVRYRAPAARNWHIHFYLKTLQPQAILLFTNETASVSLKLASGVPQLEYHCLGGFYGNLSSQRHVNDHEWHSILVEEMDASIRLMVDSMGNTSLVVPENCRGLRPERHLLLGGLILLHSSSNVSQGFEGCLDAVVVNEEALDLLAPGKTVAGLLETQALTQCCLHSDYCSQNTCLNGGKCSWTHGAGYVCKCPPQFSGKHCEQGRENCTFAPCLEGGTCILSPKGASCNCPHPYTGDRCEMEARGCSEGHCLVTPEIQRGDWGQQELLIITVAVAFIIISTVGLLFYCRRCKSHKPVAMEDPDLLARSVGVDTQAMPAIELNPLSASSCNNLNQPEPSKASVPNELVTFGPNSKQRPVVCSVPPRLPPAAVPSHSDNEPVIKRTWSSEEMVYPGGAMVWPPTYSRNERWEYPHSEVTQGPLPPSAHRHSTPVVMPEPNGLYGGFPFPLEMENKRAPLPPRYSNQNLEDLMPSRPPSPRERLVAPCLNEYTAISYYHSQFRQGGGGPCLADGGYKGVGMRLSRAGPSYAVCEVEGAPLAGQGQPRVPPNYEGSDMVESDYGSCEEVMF

[2] = compound: Cc1cccc(CC(=O)N2CCc3c2ccc(-c2cn(C)c4ncnc(N)c24)c3F)n1
How it was run: as §1

[3] = compound: Cc1cn(-c2cc(NC(=O)c3ccc(C)c(Nc4nccc(-c5cccnc5)n4)c3)cc(C(F)(F)F)c2)cn1 [nilotinib]
How it was run: as §1

[4] = compound: Cc1nc(Nc2n[nH]c3c2CN(C(=O)N[C@H](CN(C)C)c2ccccc2)C3(C)C)c2sccc2n1
How it was run: as §1

[5] = compound: Cc1nc(Nc2ncc(C(=O)Nc3c(C)cccc3Cl)s2)cc(N2CCN(CCO)CC2)n1 [dasatinib]
How it was run: as §1

[6] = compound: Cc1ncc(-c2ccnc(Nc3ccc(S(C)(=O)=O)cc3)n2)n1C(C)C
How it was run: as §1

[7] = compound: Cn1cc(-c2ccc3c(c2)CCN3C(=O)Cc2cccc(C(F)(F)F)c2)c2c(N)ncnc21
How it was run: as §1

[8] = compound: Cn1cc(-c2ccc3nnc(C(F)(F)c4ccc5ncccc5c4)n3n2)cn1
How it was run: as §1

[9] = compound: Cn1cncc1[C@@](N)(c1ccc(Cl)cc1)c1ccc2c(c1)c(-c1cccc(Cl)c1)cc(=O)n2C [tipifarnib]
How it was run: as §1

[10] = compound: FC(F)(F)c1ccc(/C=C/c2nc(COc3ccc(CCCCn4ccnn4)cc3)co2)cc1 [mubritinib]
How it was run: as §1

[11] = compound: NC(=O)Nc1cc(-c2cccc(F)c2)sc1C(=O)N[C@H]1CCCNC1
How it was run: as §1

[12] = compound: NC(=O)c1cnc(N[C@@H]2CCCC[C@@H]2N)nc1Nc1cccc(-n2nccn2)c1
How it was run: as §1

[13] = compound: NC1(c2ccc(-c3nc4ccn5c(=O)[nH]nc5c4cc3-c3ccccc3)cc2)CCC1
How it was run: as §1

[14] = compound: NCC(=O)Nc1ccc(-n2nc(C(F)(F)F)cc2-c2ccc3c(ccc4ccccc43)c2)cc1
How it was run: as §1

[15] = compound: Nc1ccccc1NC(=O)c1ccc(CNC(=O)OCc2cccnc2)cc1 [entinostat]
How it was run: as §1

[16] = compound: O=C(CCCCCCC(=O)Nc1ccccc1)NO [vorinostat]
How it was run: as §1

[17] = compound: O=C(CCCCCCNC(=O)c1cnc(N(c2ccccc2)c2ccccc2Cl)nc1)NO [citarinostat]
How it was run: as §1

[18] = compound: O=C(O)c1ccc2c(c1)nc(Nc1cccc(Cl)c1)c1ccncc12 [silmitasertib]
How it was run: as §1

[19] = compound: O=C1NC(=O)C(c2cnc3ccccn23)=C1c1cn2c3c(cc(F)cc13)CN(C(=O)N1CCCCC1)CC2
How it was run: as §1

[20] = compound: c1cc(OCCN2CCCCC2)cc(-c2n[nH]c3ccc(-c4nnc[nH]4)cc23)c1
How it was run: as §1

Measured: log2 fold change

FAM210A (UniProt Q96ND0)
inactive: [1] -0.148 | [2] -0.054 | [3] 0.006 | [4] 0.022 | [5] 0.054 | [6] -0.042 | [7] -0.105 | [8] 0.019 | [9] 0.024 | [10] 0.038 | [11] -0.063 | [12] -0.095 | [13] 0.048 | [14] 0.017 | [15] -0.048 | [16] -0.05 | [17] 0.025 | [18] -0.042 | [19] -0.023 | [20] -0.069

FKBP8 isoform 2 (UniProt Q14318)
inactive: [1] 0.22 | [2] 0.072 | [3] -0.082 | [4] -0.08 | [5] 0 | [6] -0.023 | [7] -0.139 | [8] -0.142 | [9] 0.049 | [10] -0.14 | [11] -0.007 | [12] -0.027 | [13] 0.005 | [14] 0.035 | [15] 0.017 | [16] 0.085 | [17] 0.046 | [18] 0.062 | [19] 0.137 | [20] -0.128

FKBP1A (UniProt P62942)
inactive: [1] 0.027 | [2] -0.092 | [3] -0.017 | [4] 0.069 | [5] -0.152 | [6] -0.054 | [7] 0.075 | [8] -0.06 | [9] -0.169 | [10] -0.013 | [11] 0.073 | [12] -0.101 | [13] 0.107 | [14] 0.031 | [15] -0.028 | [16] 0.088 | [17] 0.011 | [18] -0.1 | [19] -0.013 | [20] -0.022

FASN (UniProt P49327)
inactive: [1] 0.033 | [2] 0.023 | [3] -0.01 | [4] 0.036 | [5] -0.056 | [6] -0.007 | [7] 0.021 | [8] -0.004 | [9] -0.069 | [10] 0.087 | [11] 0.002 | [12] -0.051 | [13] -0.106 | [14] -0.022 | [15] -0.01 | [16] 0.011 | [17] 0.052 | [18] 0 | [19] -0.037 | [20] -0.009

FBXL18 isoform 4 (UniProt Q96ME1)
inactive: [1] -0.03 | [2] 0.077 | [3] -0.047 | [4] -0.012 | [5] -0.049 | [6] -0.022 | [7] 0.031 | [8] 0.008 | [9] -0.067 | [10] 0.095 | [11] -0.039 | [12] -0.022 | [13] -0.104 | [14] -0.012 | [15] 0.004 | [16] 0.079 | [17] 0.021 | [18] 0.001 | [19] -0.074 | [20] -0.028

FCHO2 (UniProt Q0JRZ9)
inactive: [1] 0.092 | [2] -0.014 | [3] 0.214 | [4] -0.118 | [5] -0.121 | [6] -0.127 | [7] 0.034 | [8] -0.051 | [9] -0.084 | [10] 0.008 | [11] -0.087 | [12] -0.17 | [13] -0.116 | [14] -0.055 | [15] -0.096 | [16] 0.106 | [17] 0.016 | [18] -0.205 | [19] 0.081 | [20] -0.058

FMC1 (UniProt Q96HJ9)
inactive: [1] -0.128 | [2] -0.026 | [3] 0.009 | [4] 0.045 | [5] 0.006 | [6] -0.012 | [7] -0.006 | [8] 0.009 | [9] 0.035 | [10] 0.016 | [11] 0.01 | [12] -0.044 | [13] -0.011 | [14] 0.013 | [15] -0.042 | [16] -0.054 | [17] 0.044 | [18] 0.006 | [19] -0.012 | [20] -0.053

FDXR isoform 7 (UniProt P22570)
inactive: [1] -0.012 | [2] -0.162 | [3] -0.031 | [4] -0.015 | [5] -0.245 | [6] -0.042 | [7] -0.023 | [8] 0.038 | [9] -0.002 | [11] -0.03 | [12] -0.044 | [13] -0.083 | [14] -0.082 | [15] -0.006 | [16] 0.084 | [17] 0.031 | [18] -0.034 | [19] -0.197 | [20] -0.11
active: [10] -0.643

FDX1 (UniProt P10109)
inactive: [1] -0.042 | [2] 0.046 | [3] 0.022 | [4] -0.045 | [5] 0.003 | [6] -0.055 | [7] 0.007 | [8] -0.035 | [9] 0.013 | [10] -0.037 | [11] -0.083 | [12] 0.023 | [13] 0.061 | [14] -0.017 | [15] 0.04 | [16] -0.075 | [17] 0.022 | [18] 0.051 | [19] -0.01 | [20] -0.03

FBXW2 (UniProt Q9UKT8)
inactive: [1] 0.107 | [5] -0.005 | [7] 0.101 | [8] -0.13 | [9] 0.01 | [10] 0.023 | [11] -0.019 | [12] 0.009 | [13] -0.137 | [14] 0.022 | [15] -0.037 | [18] -0.086 | [19] 0.036

FNIP1 (UniProt Q8TF40)
inactive: [1] -0.107 | [2] -0.022 | [5] -0.122 | [7] -0.133 | [8] 0.069 | [9] 0.118 | [10] 0.039 | [13] -0.435 | [16] -0.162 | [18] 0.089 | [19] 0.16

FBH1 isoform 2 (UniProt Q8NFZ0)
inactive: [1] 0.004 | [2] -0.038 | [3] -0.081 | [4] -0.003 | [6] 0.201 | [8] 0.044 | [9] -0.031 | [10] -0.287 | [11] -0.091 | [12] -0.167 | [13] -0.016 | [14] -0.149 | [15] 0.106 | [16] 0.032 | [17] -0.038 | [18] 0.164 | [19] -0.221 | [20] 0.54

Random excerpt: 2 entries already listed.
FBH1 isoform 2 (UniProt Q8NFZ0)
inactive: [1] 0.004 | [2] -0.038 | [3] -0.081 | [4] -0.003 | [6] 0.201 | [8] 0.044 | [9] -0.031 | [10] -0.287 | [11] -0.091 | [12] -0.167 | [13] -0.016 | [14] -0.149 | [15] 0.106 | [16] 0.032 | [17] -0.038 | [18] 0.164 | [19] -0.221 | [20] 0.54

FDX1 (UniProt P10109)
inactive: [1] -0.042 | [2] 0.046 | [3] 0.022 | [4] -0.045 | [5] 0.003 | [6] -0.055 | [7] 0.007 | [8] -0.035 | [9] 0.013 | [10] -0.037 | [11] -0.083 | [12] 0.023 | [13] 0.061 | [14] -0.017 | [15] 0.04 | [16] -0.075 | [17] 0.022 | [18] 0.051 | [19] -0.01 | [20] -0.03

The list continues:

FAM241A (UniProt Q8N8J7)
inactive: [1] -0.143 | [2] -0.056 | [3] -0.027 | [4] 0.029 | [5] 0.02 | [6] -0.095 | [7] 0.046 | [8] 0.049 | [9] 0.008 | [10] 0.028 | [12] -0.033 | [13] -0.032 | [14] -0.004 | [16] -0.005 | [17] -0.09 | [18] 0.045 | [20] -0.058
active: [11] 0.661 | [15] 0.424

FAM78A (UniProt Q5JUQ0)
inactive: [1] -0.218 | [2] 0.075 | [3] -0.045 | [4] 0.049 | [5] -0.163 | [6] 0.007 | [7] -0.078 | [8] 0 | [9] -0.069 | [11] -0.025 | [12] -0.182 | [14] -0.136 | [15] -0.097 | [16] -0.072 | [17] -0.009 | [19] 0.071 | [20] -0.025

FBXO44 (UniProt Q9H4M3)
inactive: [1] -0.121 | [3] 0.1 | [4] 0.056 | [6] 0.255 | [7] 0.252 | [8] 0.028 | [11] -0.021 | [15] 0.051

FAT2 (UniProt Q9NYQ8)
inactive: [1] 0.076 | [2] -0.005 | [5] 0.006 | [7] 0.167 | [8] 0.002 | [9] 0.008 | [10] 0.354 | [13] -0.334 | [14] -0.134 | [16] 0.068 | [17] -0.045 | [18] -0.063 | [19] -0.06 | [20] -0.06

FNBP1L (UniProt Q5T0N5)
inactive: [1] 0.006 | [2] -0.035 | [3] -0.286 | [4] 0.002 | [5] -0.013 | [6] 0.033 | [7] 0.103 | [8] 0.028 | [9] -0.037 | [10] -0.148 | [11] -0.128 | [12] -0.142 | [13] -0.008 | [14] 0.006 | [15] -0.242 | [16] -0.013 | [18] 0.032

FCGR2C (UniProt P31995)
inactive: [1] 0.011 | [2] -0.044 | [3] 0.064 | [4] -0.021 | [5] 0.025 | [6] -0.037 | [7] 0.026 | [8] -0.001 | [9] -0.023 | [10] 0.062 | [11] -0.092 | [12] 0.074 | [13] 0.098 | [14] 0.05 | [15] -0.019 | [16] -0.052 | [17] 0.038 | [18] -0.051 | [19] -0.03 | [20] -0.065
